# These are yes or no findings as the source states them, for the method shown. A result given as binding can be weak or reduced; the word gives no strength. Sequences can lack the tags named with a protein.
# Columns and labels:
# [1] = target: T1, GST-UPF1fl, unphosphorylated (mock-treated with SMG1 KD or not treated) (human) (UniProt Q92900); test: pull-down; GST pull-down as in Figure 1C with GST-UPF1fl as bait and several preys added together (SMG6fl, UPF2, UPF3, EJC; or SMG6fl and SMG5–7 TPR after treatment with SMG1 wt or KD); Coomassie; both purified
# T1 sequence: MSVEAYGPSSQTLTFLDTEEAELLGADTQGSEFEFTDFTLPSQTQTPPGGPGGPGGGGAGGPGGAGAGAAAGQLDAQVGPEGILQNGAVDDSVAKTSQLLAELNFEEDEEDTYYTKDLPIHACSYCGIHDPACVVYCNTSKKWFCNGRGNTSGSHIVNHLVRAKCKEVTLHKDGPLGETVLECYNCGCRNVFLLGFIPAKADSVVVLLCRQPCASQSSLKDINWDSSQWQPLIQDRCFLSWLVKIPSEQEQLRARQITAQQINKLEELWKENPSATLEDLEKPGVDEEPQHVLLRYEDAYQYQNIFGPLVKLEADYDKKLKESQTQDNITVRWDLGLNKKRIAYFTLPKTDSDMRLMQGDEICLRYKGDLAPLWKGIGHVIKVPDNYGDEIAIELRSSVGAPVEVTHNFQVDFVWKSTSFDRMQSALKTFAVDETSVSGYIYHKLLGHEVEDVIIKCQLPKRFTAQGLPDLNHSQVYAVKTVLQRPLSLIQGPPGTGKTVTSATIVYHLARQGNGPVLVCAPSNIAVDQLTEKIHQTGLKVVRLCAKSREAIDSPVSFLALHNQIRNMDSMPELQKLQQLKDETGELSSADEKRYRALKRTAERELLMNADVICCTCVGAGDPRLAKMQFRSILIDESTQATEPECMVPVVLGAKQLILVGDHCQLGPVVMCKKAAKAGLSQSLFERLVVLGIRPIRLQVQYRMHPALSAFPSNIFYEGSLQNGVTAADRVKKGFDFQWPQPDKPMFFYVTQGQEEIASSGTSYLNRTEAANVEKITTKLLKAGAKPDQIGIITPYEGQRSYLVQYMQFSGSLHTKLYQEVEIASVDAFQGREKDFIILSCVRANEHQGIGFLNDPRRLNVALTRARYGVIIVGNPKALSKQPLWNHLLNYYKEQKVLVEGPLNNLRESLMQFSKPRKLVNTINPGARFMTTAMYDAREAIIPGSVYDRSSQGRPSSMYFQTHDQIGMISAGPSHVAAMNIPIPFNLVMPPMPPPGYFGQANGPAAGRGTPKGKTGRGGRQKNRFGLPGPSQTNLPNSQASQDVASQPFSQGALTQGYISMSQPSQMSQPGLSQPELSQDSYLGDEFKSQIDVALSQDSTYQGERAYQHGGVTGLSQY
# [2] = target: T1, GST-UPF1fl, unphosphorylated (mock-treated with SMG1 KD or not treated) (human); test: pull-down; GST pull-down, one prey: ∼2 μg GST-tagged bait with equal amount of untagged prey in 20 mM HEPES pH 7.5, 125 mM NaCl, 2% glycerol, 2 mM DTT (45 μl), 45 min at room temperature; glutathione–Sepharose beads in 20 mM HEPES pH 7.5, 150 mM NaCl, 10% glycerol, 2 mM DTT, 0.1% NP-40, 1 h at 4°C; eluted with glutathione; SDS-PAGE, Coomassie; GST-UPF1 constructs pre-treated with SMG1 wt or SMG1 KD where indicated; both purified
binding [1],binding [2],Substance
binds,,UPF2 with the RRM domain of UPF3 (complex)
binds,binds,UPF2–UPF3 (complex)

# Source: publication PMC4132714, “Phospho-dependent and phospho-independent interactions of the helicase UPF1 with the NMD factors SMG5–SMG7 and SMG6” (Nucleic Acids Research, 2014)
